Data as given in PubChem BioAssay AID652243 (Drosophila RNAi Screening Center, 2013)

Purpose: 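Fly regulators of androgen-dependent reporter output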 (primary screen)
Cells: Drosophila S2R+ cells
Reagent: long dsRNA against Drosophila genes
Timing: 72 h (48 h, then 24 h hormone)
Challenge: synthetic androgen R1881 at 10 nM for 24 h
Detection: 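Firefly light from an androgen-responsive reporter and Renilla control light per well, raw and unnormalised, for each of two replicates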
Reading the numbers: firefly reporter light: higher = more light from androgen-responsive reporter; Renilla control light: higher = more constitutive control signal (cell number, transfection)
Rule for the call: 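Across duplicate plates, a knock-down whose log firefly/Renilla ratio shifted a set fold down or up from the GFP/LacZ control mean was a hit; the downward cut appears as both 1.5 and 3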
Calls: active = hit: reporter lowered or raised; inactive = no hit
In all, the deposit lists about 24,000 reagents; this is a random part of those that have a named target and a result. In the full data, 246 (1%) got an active call. 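Plates not normalised; calls are printed but the firefly/Renilla ratio behind them is not deposited; fold cut for lowering reported inconsistently.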 Raw values are not corrected between plates. Unmarked entries are inactive. Reagents against one gene are numbered here. A plus sign joins genes that one reagent is predicted to hit. No sequences are given here. Not stated in the record: the amount of reagent.

Syn1 + CG7370 #1 → firefly reporter light, replicate 1 = 8.79e5; firefly reporter light, replicate 2 = 9.07e5; Renilla control light, replicate 1 = 1.56e6; Renilla control light, replicate 2 = 2.22e6
Syn1 + CG7370 #2 → firefly reporter light, replicate 1 = 2.76e5; firefly reporter light, replicate 2 = 3.00e5; Renilla control light, replicate 1 = 6.06e5; Renilla control light, replicate 2 = 7.53e5
ATP8B (ATPase 8B) → firefly reporter light, replicate 1 = 65358; firefly reporter light, replicate 2 = 46933; Renilla control light, replicate 1 = 3.75e5; Renilla control light, replicate 2 = 4.27e5
Jon99Cii (Jonah 99Cii) #1 → firefly reporter light, replicate 1 = 1.67e5; firefly reporter light, replicate 2 = 1.64e5; Renilla control light, replicate 1 = 2.88e6; Renilla control light, replicate 2 = 3.15e6
Jon99Cii (Jonah 99Cii) #2 → firefly reporter light, replicate 1 = 4.78e5; firefly reporter light, replicate 2 = 4.37e5; Renilla control light, replicate 1 = 7.18e5; Renilla control light, replicate 2 = 6.86e5
CG15741 #1 → firefly reporter light, replicate 1 = 1.53e5; firefly reporter light, replicate 2 = 1.31e5; Renilla control light, replicate 1 = 1.69e6; Renilla control light, replicate 2 = 1.74e6
CG15741 #2 → firefly reporter light, replicate 1 = 3.13e5; firefly reporter light, replicate 2 = 2.84e5; Renilla control light, replicate 1 = 6.06e5; Renilla control light, replicate 2 = 5.01e5
Lrt (Leucine-rich tendon-specific protein) #1 → firefly reporter light, replicate 1 = 1.11e5; firefly reporter light, replicate 2 = 1.39e5; Renilla control light, replicate 1 = 1.48e6; Renilla control light, replicate 2 = 2.22e6
Lrt (Leucine-rich tendon-specific protein) #2 → firefly reporter light, replicate 1 = 2.58e5; firefly reporter light, replicate 2 = 2.35e5; Renilla control light, replicate 1 = 6.29e5; Renilla control light, replicate 2 = 5.39e5
meng (meng-po) #1 → firefly reporter light, replicate 1 = 1.53e5; firefly reporter light, replicate 2 = 1.55e5; Renilla control light, replicate 1 = 1.24e6; Renilla control light, replicate 2 = 1.00e6
meng (meng-po) #2 → firefly reporter light, replicate 1 = 4.60e5; firefly reporter light, replicate 2 = 2.33e5; Renilla control light, replicate 1 = 1.20e6; Renilla control light, replicate 2 = 1.15e6
CG13599 → firefly reporter light, replicate 1 = 1.55e5; firefly reporter light, replicate 2 = 1.82e5; Renilla control light, replicate 1 = 2.12e6; Renilla control light, replicate 2 = 1.72e6

Part of the list above, set out differently:
gene,reagent no.,"firefly reporter light, replicate 1","firefly reporter light, replicate 2","Renilla control light, replicate 1","Renilla control light, replicate 2"
CG15741,1,1.53e5,1.31e5,1.69e6,1.74e6
CG15741,2,3.13e5,2.84e5,6.06e5,5.01e5
